Experimental data reported in the supplement of paper PMC11237882.
The other results are listed elsewhere or left out. Values are worked out from sequencing counts and are noisy.

T1: Homer1 EVH1 domain
T1 chain: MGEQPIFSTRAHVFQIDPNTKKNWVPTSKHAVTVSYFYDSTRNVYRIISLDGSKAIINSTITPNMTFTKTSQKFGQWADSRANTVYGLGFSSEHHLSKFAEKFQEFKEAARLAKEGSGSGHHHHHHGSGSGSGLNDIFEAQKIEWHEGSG


Target: T1, Homer1 EVH1 domain
Assay: enrichment score (AUC of log2 frequency ratio across FACS sorting rounds) (log2 AUC); higher = stronger enrichment for Homer1 EVH1 binding

For HCLAAFKRLEHKEVLVGLLFLVFPFIPASNLFFRVG, which enrichment score is on record?
Its enrichment score is -1.41.

PGYLTAEVLELAGLWVIVALNVWLILSGSPFIDNSR was tested. Which enrichment score did it give?
The enrichment score was 3.12.

With PYISGPLGFFYIYAYVFENIKSVRLEALLLSLLSIV as the binder, how does the enrichment score read?
The enrichment score was -0.45.

For TMIFVTLSIMVTVFAINIHHRSSSTHNAMAPLVRKI, which enrichment score is on record?
Its enrichment score is 0.65.

RAHIGVIPHFFMAVLYVFLHAILIMVQATTLNVAFN was tested. Which enrichment score did it give?
The enrichment score was 1.66.

For LGLISGISIIVGTIIGSGIFVSPKSVLSNTEAVGPC, which enrichment score is on record?
Its enrichment score is 1.46.

How did the enrichment score turn out when NPVQVSINQLTAAIYDLLRLHANSGRSPTDCAQSSK was run?
Its enrichment score is -0.634.

For SMFLPPTTVAGATLYSVAMYGGLVLFSMFLLYDTQK, which enrichment score is on record?
The enrichment score was 3.56.

With ADVVQKLPEKKTQMYHALLKHLGTLAGSQIRNMASL as the binder, how does the enrichment score read?
Its enrichment score is 2.46.

With PYYYFQEGWNIFDGFIVTLSLVELGLANVVGLSVLR as the binder, how does the enrichment score read?
Its enrichment score is -2.48.

With VMGEQFSYASDCASFFSPGIWMGLLTSLFMLFIFTY as the binder, how does the enrichment score read?
Its enrichment score is 2.97.

MDPKLGRMAASLLAVLLLLLERGMFSSPSPPPALLE was tested. Which enrichment score did it give?
Its enrichment score is 1.84.

For ATSRFTMNFLILYSFIPALVILGIVVFKIRDHLISR, which enrichment score is on record?
The enrichment score was 2.66.

TIITPKMLVNFVTEKNIISYPECMTQLYFFLIFAIA was tested. Which enrichment score did it give?
Its enrichment score is -0.209.

EYFGERCGEKSMKTHSMIDSSLSKIALAAIAAFMSA was tested. Which enrichment score did it give?
Its enrichment score is -1.98.

With FFAMMLLMGTLYVHMFLFARLHVKRIAALPPADGVA as the binder, how does the enrichment score read?
Its enrichment score is 2.29.

How did the enrichment score turn out when INYLNRALDIFNTSIVTPIYYVFFTTSVLTCSAILI was run?
The enrichment score was 2.51.

How did the enrichment score turn out when HVMIMSEAQDLRNYCINTAALFFAFVTMLLYILHAF was run?
Its enrichment score is 4.55.

EETPPAGKEGDLPPLWWHIVPATAVGVRAKSSAAPA was tested. Which enrichment score did it give?
Its enrichment score is 0.424.

KNILEKQFSKSSRAAHQDFANIMKMLRSLIQDGYMA was tested. Which enrichment score did it give?
The enrichment score was -0.283.

For LPLRLFTLWRGPVVVAISLATFFFLYSFVRDVIHPY, which enrichment score is on record?
The enrichment score was 0.584.

With VTGKNMKMHSFIGQSGVITDLYLFSCIISFSSFIYY as the binder, how does the enrichment score read?
The enrichment score was -2.33.

How did the enrichment score turn out when SLPLILTLLELCVTISTIAMWCNANCCNSREEISSP was run?
Its enrichment score is 1.99.

Which enrichment score does the source give for IPAFKYYEACTFLVFLSNFIIQMLVTNRPPALAITY here?
The enrichment score was 0.566.

How did the enrichment score turn out when KEPYFQPHSCLSHLLTSSAAILTVLCVVMIFLVSVI was run?
Its enrichment score is 2.09.

Which enrichment score does the source give for KMSSLSSRGIQFLEPSTHFLSIVIVIFHCFAIQPLI here?
The enrichment score was 1.25.

For REEEEEEFNFKVIPPPPEFSNDPEPPAPALQYLGRQ, which enrichment score is on record?
The enrichment score was 4.84.

Which enrichment score does the source give for DFNPDPRSRYTFWTFVVGSTLVWLSMYGVNQAQVQR here?
The enrichment score was 4.18.
